Results reported in the supplement of paper PMC10849652.
This is one part of the list.

The chains behind the UniProt entries cited, without tags or fusion partners. Where a name states a change or a piece, a line headed by the entry shows the natural chain unless it says otherwise.
UniProt O75529: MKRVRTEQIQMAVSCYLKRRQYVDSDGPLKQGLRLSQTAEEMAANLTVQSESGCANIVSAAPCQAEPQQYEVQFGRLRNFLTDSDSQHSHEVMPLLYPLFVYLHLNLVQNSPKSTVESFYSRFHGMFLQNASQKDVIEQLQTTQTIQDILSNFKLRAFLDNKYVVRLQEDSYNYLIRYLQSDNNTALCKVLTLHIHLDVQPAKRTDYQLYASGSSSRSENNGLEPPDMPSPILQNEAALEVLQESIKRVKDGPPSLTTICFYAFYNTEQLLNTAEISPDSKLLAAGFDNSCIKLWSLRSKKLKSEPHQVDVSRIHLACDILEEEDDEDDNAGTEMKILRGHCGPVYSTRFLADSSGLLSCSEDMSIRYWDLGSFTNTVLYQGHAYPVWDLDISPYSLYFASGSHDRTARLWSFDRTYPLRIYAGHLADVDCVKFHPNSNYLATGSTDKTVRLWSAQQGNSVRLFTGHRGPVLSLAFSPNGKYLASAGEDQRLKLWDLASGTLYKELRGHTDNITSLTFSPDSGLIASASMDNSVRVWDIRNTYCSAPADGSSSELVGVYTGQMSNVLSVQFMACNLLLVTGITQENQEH
UniProt Q13043: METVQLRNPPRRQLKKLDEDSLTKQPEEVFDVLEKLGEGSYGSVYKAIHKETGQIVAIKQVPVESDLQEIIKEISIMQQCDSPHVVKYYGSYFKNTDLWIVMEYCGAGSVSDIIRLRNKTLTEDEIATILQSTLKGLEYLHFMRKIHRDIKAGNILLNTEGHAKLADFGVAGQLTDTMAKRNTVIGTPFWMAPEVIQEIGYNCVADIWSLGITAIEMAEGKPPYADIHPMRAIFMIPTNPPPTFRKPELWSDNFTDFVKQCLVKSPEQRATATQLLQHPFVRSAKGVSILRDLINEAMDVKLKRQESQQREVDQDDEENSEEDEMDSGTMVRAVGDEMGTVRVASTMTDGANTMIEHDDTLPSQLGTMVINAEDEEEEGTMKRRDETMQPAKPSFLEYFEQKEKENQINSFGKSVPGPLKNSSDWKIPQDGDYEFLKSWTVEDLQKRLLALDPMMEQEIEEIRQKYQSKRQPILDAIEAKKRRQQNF
UniProt Q8IYB8: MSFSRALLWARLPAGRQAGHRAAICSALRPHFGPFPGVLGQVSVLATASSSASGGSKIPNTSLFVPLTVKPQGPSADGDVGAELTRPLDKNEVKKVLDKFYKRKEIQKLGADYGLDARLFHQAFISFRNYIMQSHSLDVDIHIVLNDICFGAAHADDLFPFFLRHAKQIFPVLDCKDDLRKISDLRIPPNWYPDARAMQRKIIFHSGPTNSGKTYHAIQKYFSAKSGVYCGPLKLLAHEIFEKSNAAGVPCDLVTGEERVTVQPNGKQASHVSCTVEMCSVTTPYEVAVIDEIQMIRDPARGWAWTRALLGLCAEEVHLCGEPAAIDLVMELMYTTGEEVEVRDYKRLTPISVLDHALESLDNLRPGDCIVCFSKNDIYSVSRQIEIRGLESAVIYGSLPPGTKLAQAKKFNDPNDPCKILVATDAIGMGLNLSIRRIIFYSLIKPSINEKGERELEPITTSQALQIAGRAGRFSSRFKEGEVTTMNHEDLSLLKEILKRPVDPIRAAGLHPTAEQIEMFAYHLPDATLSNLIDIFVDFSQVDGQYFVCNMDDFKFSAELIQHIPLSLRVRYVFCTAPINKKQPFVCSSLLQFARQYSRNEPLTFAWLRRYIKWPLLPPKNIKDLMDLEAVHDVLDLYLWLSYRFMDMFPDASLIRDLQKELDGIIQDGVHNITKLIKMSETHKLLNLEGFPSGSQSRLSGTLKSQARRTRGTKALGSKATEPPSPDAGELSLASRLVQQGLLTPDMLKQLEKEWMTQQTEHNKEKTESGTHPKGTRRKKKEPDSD
UniProt Q9H668: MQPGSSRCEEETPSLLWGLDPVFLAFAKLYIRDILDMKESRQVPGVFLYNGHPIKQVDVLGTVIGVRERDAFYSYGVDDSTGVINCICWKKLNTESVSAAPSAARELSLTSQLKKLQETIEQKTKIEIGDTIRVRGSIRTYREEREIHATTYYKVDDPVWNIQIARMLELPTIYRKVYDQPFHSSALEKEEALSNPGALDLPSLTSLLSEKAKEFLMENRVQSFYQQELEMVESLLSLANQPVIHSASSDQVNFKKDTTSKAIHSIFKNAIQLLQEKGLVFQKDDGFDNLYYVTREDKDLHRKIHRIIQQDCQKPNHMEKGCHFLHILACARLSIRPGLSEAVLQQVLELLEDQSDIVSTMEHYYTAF
UniProt Q9NYJ8: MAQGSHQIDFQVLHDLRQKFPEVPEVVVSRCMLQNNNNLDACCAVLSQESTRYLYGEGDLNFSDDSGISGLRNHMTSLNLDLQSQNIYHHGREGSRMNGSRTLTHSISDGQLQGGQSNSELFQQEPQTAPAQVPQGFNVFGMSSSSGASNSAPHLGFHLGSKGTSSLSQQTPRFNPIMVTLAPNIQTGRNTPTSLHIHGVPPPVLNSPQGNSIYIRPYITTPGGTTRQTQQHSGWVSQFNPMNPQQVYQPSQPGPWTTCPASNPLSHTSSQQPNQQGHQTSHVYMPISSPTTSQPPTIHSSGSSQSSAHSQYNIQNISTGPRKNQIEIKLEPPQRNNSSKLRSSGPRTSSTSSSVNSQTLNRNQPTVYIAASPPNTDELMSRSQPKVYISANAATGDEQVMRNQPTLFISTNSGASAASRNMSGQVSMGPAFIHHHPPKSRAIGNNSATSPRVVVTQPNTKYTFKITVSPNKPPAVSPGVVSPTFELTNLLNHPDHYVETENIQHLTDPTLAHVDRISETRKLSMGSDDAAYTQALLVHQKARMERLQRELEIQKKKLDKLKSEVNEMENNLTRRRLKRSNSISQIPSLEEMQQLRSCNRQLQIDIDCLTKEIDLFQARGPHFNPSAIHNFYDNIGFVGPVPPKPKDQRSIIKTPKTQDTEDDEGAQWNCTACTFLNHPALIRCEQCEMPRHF
UniProt Q15831: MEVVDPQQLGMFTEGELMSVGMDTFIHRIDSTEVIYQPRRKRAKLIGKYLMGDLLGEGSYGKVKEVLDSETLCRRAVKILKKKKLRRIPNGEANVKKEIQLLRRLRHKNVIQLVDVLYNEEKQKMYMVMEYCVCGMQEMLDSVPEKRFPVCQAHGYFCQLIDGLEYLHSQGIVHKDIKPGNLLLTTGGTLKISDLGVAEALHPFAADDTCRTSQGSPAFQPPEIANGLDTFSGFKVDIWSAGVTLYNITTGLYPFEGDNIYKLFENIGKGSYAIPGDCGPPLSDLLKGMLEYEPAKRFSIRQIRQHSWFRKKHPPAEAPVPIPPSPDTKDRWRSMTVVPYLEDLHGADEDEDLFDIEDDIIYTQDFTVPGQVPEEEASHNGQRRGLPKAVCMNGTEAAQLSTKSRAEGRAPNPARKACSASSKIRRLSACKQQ
UniProt Q15022: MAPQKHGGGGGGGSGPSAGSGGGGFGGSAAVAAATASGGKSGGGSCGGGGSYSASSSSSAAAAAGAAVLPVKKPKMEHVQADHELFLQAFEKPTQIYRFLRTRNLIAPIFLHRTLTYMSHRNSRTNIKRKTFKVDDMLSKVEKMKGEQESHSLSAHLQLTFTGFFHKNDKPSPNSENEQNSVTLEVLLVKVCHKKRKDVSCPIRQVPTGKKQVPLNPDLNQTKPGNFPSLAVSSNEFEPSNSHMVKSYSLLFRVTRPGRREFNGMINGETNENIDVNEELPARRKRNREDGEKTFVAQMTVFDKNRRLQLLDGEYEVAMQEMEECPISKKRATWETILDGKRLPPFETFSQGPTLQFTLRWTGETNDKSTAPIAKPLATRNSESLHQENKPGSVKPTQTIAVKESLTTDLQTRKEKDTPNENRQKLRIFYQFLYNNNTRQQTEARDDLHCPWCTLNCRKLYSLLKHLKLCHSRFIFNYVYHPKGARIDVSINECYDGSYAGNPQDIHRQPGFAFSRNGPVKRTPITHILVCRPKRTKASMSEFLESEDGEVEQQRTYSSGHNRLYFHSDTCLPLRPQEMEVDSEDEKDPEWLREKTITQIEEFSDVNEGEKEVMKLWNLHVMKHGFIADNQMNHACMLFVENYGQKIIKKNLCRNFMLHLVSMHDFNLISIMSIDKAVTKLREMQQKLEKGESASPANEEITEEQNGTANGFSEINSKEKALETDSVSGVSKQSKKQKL
UniProt O60506: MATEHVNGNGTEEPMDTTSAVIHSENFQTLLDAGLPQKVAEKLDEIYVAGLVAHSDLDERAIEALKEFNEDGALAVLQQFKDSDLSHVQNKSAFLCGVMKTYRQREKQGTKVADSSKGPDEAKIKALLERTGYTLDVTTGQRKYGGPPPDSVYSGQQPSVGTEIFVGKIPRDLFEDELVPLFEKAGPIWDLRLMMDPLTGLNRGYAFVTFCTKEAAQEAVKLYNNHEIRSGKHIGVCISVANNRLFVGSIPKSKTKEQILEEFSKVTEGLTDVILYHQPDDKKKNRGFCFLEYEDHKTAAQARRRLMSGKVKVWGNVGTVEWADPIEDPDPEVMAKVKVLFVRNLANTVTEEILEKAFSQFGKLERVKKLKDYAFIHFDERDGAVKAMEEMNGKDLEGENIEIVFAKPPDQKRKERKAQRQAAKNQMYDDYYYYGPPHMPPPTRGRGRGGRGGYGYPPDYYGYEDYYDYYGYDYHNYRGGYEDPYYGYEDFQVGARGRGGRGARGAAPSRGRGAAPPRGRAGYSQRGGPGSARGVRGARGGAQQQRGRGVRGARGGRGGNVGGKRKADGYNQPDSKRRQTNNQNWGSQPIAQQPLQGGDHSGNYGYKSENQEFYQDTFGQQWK
UniProt Q8N5C8: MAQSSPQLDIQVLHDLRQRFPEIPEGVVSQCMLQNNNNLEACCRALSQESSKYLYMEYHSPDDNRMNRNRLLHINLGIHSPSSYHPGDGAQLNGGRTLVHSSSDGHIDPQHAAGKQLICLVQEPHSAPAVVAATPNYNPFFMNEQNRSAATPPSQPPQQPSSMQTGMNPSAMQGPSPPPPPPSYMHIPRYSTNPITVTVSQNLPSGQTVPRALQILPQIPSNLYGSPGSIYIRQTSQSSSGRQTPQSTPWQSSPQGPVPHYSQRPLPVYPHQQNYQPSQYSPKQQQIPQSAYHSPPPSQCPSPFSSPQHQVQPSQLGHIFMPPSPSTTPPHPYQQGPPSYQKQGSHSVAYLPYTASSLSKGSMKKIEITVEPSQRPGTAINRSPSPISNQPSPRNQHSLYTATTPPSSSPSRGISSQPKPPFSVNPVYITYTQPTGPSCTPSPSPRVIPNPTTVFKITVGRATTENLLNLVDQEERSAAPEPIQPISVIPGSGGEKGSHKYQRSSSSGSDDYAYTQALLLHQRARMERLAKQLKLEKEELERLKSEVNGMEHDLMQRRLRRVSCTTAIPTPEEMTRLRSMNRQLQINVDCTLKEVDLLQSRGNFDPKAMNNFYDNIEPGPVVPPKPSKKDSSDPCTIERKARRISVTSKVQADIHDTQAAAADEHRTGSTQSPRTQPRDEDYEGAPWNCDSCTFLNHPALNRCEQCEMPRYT
UniProt P49848, whole entry, looked up: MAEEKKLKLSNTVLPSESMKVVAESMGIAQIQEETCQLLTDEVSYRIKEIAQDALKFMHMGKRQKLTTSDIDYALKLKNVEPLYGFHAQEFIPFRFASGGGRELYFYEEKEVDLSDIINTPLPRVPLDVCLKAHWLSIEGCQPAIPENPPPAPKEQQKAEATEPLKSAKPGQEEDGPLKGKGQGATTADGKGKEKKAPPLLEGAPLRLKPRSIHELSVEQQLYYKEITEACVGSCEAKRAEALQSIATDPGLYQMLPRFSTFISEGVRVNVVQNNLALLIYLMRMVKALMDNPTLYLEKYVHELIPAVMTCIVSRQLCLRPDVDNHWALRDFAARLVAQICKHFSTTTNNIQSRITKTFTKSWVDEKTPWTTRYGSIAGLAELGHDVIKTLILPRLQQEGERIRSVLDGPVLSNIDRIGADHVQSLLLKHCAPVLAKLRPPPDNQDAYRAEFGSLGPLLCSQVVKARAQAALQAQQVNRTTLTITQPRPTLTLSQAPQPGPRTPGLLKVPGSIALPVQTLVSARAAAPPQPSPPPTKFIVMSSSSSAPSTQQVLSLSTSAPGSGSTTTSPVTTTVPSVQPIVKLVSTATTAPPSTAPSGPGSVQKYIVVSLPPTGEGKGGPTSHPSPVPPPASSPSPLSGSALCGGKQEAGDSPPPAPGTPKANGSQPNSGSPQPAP
UniProt O00506, whole entry, looked up: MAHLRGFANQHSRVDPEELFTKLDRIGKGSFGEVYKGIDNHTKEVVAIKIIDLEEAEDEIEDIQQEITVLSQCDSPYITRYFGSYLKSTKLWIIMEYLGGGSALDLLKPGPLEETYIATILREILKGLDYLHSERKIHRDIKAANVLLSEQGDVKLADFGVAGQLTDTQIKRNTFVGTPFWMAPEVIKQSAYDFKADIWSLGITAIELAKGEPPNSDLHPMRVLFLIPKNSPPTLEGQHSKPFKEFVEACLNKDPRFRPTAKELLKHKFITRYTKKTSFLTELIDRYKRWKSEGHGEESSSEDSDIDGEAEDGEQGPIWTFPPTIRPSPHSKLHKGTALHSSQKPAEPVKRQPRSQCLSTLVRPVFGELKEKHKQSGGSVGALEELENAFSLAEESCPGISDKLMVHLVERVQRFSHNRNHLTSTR

Experiments:
Assay in all cases: log2 fold change, soluble protein after heating vs DMSO (PISA); higher = thermal stabilisation; K562 lysate, 10 uM; active = over 0.2 and 3.5 SD of the protein, either way, in both replicates (recomputed)
erlotinib = compound: C#Cc1cccc(Nc2ncnc3cc(OCCOC)c(OCCOC)cc23)c1 [erlotinib]
Summary of the method: (§1)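 K562 pellets were dounce-homogenised in PBS pH 7.4 containing 1 mM MgCl2, and the crude extract, at 1 mg/mL protein, was exposed to 10 μM compound for 30 min. Aliquots were heated for 3 min across 48°C-58°C, pooled, brought to 0.5% NP-40 at 4°C and spun at 21,000xg for 90 min, with the supernatant taken as soluble protein. TMTpro 16plex LC-MS/MS with equalised channel sums quantified that protein. Values are log-two fold changes in thermal stability relative to solvent controls, taken from duplicates.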

[1] = compound: C/C(=N\NC(=O)C1=CC(=CC=C1)S(=O)(=O)N2CCOCC2)/C3=C(C=CC(=C3)Cl)O
Summary of the method: as §1

[2] = compound: C1=CC(=CC=C1C2=NC3=C(N2)C=C(C=C3)C(=O)N)OC4=CC=C(C=C4)Cl
Summary of the method: as §1

[3] = compound: C1=CC2=C(C=CC(=C2)/C=C\3/C(=O)NC(=NCC4=CC=CS4)S3)N=C1
Summary of the method: as §1

[4] = compound: C1=CC2=NC=CN=C2C=C1/C=C/3\C(=O)NC(=O)S3
Summary of the method: as §1

[5] = compound: C1=CC=C(C=C1)C2=NC(=C(N2)C3=CC=NC=C3)C4=CC(=C(C=C4)Cl)O
Summary of the method: as §1

[6] = compound: C1=CC=C2C(=C1)C3=NNC4=CC=CC(=C43)C2=O
Summary of the method: as §1

[7] = compound: C1CCN(C1)C(=O)NC2=CC=CC(=C2)NC3=NC=C(C(=N3)NCCC4=CN=CN4)Br
Summary of the method: as §1

[8] = compound: C1CN(CCC1(CC2=CC=C(C=C2)Cl)N)C3=NC=NC4=C3C=CN4
Summary of the method: as §1

IRAK-1-4 Inhibitor I = compound: C1COCCN1CCN2C3=CC=CC=C3N=C2NC(=O)C4=CC(=CC=C4)[N+](=O)[O-] [IRAK-1-4 Inhibitor I]
Summary of the method: as §1

ibrutinib = compound: C=CC(=O)N1CCC[C@@H](n2nc(-c3ccc(Oc4ccccc4)cc3)c3c(N)ncnc32)C1 [ibrutinib]
Summary of the method: as §1

ralimetinib = compound: CC(C)(C)Cn1c(N)nc2ccc(-c3[nH]c(C(C)(C)C)nc3-c3ccc(F)cc3)nc21 [ralimetinib]
Summary of the method: as §1

[9] = compound: CC(C)(O)CC(=O)NCCn1ccc2ncnc(Nc3ccc(Oc4cccc(C(F)(F)F)c4)c(Cl)c3)c21
Summary of the method: as §1

[10] = compound: CC(C)C1=C2N=C(C=C(N2N=C1)NCC3=CC=CC=C3)NCCCCCCN
Summary of the method: as §1

[11] = compound: CC1=C(C(CC(=O)N1)C2=CC=C(C=C2)C(F)(F)F)C(=O)NC3=C(C=C4C(=C3)C=NN4)F
Summary of the method: as §1

[12] = compound: CC1=C(C2=C(C=C1)C(=O)C3=CC=CC=C3N2CCCN)C
Summary of the method: as §1

[13] = compound: CC1=C(C=C(C=C1)NC(=O)C2=CC(=CC=C2)C(C)(C)C#N)NC3=CC4=C(C=C3)N=CN(C4=O)C
Summary of the method: as §1

[14] = compound: CC1=C(C=C(C=C1)NC(=O)C2=CC(=CC=C2)N(C)C)NC(=O)C3=CC=C(C=C3)O
Summary of the method: as §1

[15] = compound: CC(=O)c1cnc2ccc(-c3cc(Cl)c(O)c(Cl)c3)nc2c1N[C@H]1CC[C@H](CN(C)C)CC1
Summary of the method: as §1

[16] = compound: CC1=CC=C(C=C1)SC2=C3C=C(SC3=CN=C2)C(=O)N
Summary of the method: as §1

Row | Target | log2 fold change (erlotinib) | log2 fold change [1] | log2 fold change [2] | log2 fold change [3] | log2 fold change [4] | log2 fold change [5] | log2 fold change [6] | log2 fold change [7] | log2 fold change [8] | log2 fold change (IRAK-1-4 Inhibitor I) | log2 fold change (ibrutinib) | log2 fold change (ralimetinib) | log2 fold change [9] | log2 fold change [10] | log2 fold change [11] | log2 fold change [12] | log2 fold change [13] | log2 fold change [14] | log2 fold change [15] | log2 fold change [16]
1 | TAF5L (UniProt O75529) | inactive: -0.094 | inactive: 0.095 | inactive: 0.038 | inactive: -0.272 | inactive: 0.112 | inactive: 0.093 | inactive: 0.009 | inactive: 0.089 | inactive: -0.016 | inactive: 0.022 | inactive: 0.075 | inactive: 0.014 | inactive: -0.039 | inactive: 0.038 | inactive: -0.005 | inactive: -0.085 | inactive: 0.023 | inactive: -0.057 |  | 
2 | STYX (UniProt Q8WUJ0) | inactive: 0 |  | inactive: 0.058 |  | inactive: 0.036 | inactive: -0.022 |  | inactive: 0.066 | inactive: 0.104 | inactive: 0.025 | inactive: 0.016 | inactive: 0 | inactive: -0.05 | inactive: -0.023 | inactive: -0.012 | inactive: 0.024 | inactive: 0.033 | inactive: -0.031 | inactive: 0.082 | inactive: 0.002
3 | STK4 (UniProt Q13043) | inactive: -0.013 | inactive: -0.15 | inactive: -0.033 | inactive: -0.061 | inactive: -0.008 | inactive: -0.009 | inactive: 0.165 | inactive: 0.187 | inactive: 0.053 | inactive: 0.018 | inactive: 0.056 | inactive: -0.006 | inactive: 0.007 | inactive: 0.004 | inactive: -0.023 | inactive: -0.015 | inactive: -0.036 | inactive: 0.024 | inactive: 0.324 | inactive: -0.07
4 | TADA2B (UniProt Q86TJ2) | inactive: 0.08 | inactive: -0.05 | inactive: 0.048 | inactive: -0.155 |  |  | inactive: 0.151 |  |  |  |  |  |  | inactive: 0.101 | inactive: 0.032 | inactive: 0.007 | inactive: -0.016 |  |  | 
5 | SUPV3L1 (UniProt Q8IYB8) | inactive: -0.007 | inactive: 0.036 | inactive: 0.002 | inactive: -0.009 | inactive: 0.01 | inactive: -0.028 | inactive: -0.025 | inactive: -0.006 | inactive: 0.028 | inactive: -0.014 | inactive: 0.014 | inactive: 0.008 | inactive: -0.003 | inactive: -0.001 | inactive: -0.004 | inactive: 0.013 | inactive: 0.021 | inactive: -0.025 | inactive: -0.02 | inactive: -0.002
6 | TAF13 (UniProt Q15543) | inactive: 0.015 | inactive: -0.319 | inactive: 0.016 | inactive: -0.282 |  | inactive: -0.048 | inactive: 0.195 |  |  | inactive: 0.027 |  | inactive: -0.004 | inactive: 0.016 | inactive: -0.021 | inactive: 0.019 |  |  | inactive: 0.059 |  | 
7 | SUN2 isoform 2 (UniProt Q9UH99) | inactive: -0.08 | inactive: 0.038 | inactive: -0.238 | inactive: 0.067 | inactive: -0.002 | inactive: -0.026 | inactive: -0.192 | inactive: -0.144 | inactive: 0.041 | inactive: -0.049 | inactive: -0.113 | inactive: 0.055 | inactive: 0.073 | inactive: 0.063 |  | inactive: -0.042 | inactive: -0.001 | inactive: -0.072 | inactive: 0.086 | inactive: 0.062
8 | STN1 (UniProt Q9H668) | inactive: -0.126 | inactive: 0.049 | inactive: 0.142 | inactive: 0.075 | inactive: -0.098 | inactive: 0.019 | inactive: -0.061 | inactive: -0.045 | inactive: 0.043 | inactive: 0.034 | inactive: 0.133 | inactive: 0.151 | inactive: -0.071 | inactive: -0.056 | inactive: 0.106 |  | inactive: -0.016 | inactive: 0.051 | inactive: -0.187 | inactive: 0.035
9 | TAB2 (UniProt Q9NYJ8) | inactive: -0.028 | inactive: 0.036 | inactive: 0.021 | inactive: -0.052 | inactive: 0.058 | inactive: 0.032 | inactive: 0.052 | inactive: -0.036 | inactive: -0.019 | inactive: 0.037 | inactive: -0.033 | inactive: -0.022 | inactive: 0.039 | inactive: -0.091 | inactive: 0.051 | inactive: 0.025 | inactive: 0.106 | inactive: -0.007 | inactive: 0.078 | inactive: -0.022
10 | SUMF1 (UniProt Q8NBK3) | inactive: -0.068 | inactive: 0.022 | inactive: -0.007 | inactive: -0.114 | inactive: 0.024 | inactive: -0.007 | inactive: 0.014 | inactive: -0.023 | inactive: -0.052 | inactive: 0.04 | inactive: 0.017 | inactive: 0.043 | inactive: 0.016 | inactive: -0.02 | inactive: 0.062 | inactive: 0.025 | inactive: -0.033 | inactive: 0.028 | inactive: 0.035 | inactive: -0.05
11 | STK11 (UniProt Q15831) | inactive: -0.005 | inactive: -0.033 | inactive: 0.026 | inactive: 0.024 | inactive: -0.005 | inactive: -0.011 | inactive: 0.042 | inactive: 0.046 | inactive: 0.013 | inactive: -0.013 | inactive: 0.035 | inactive: -0.025 | inactive: 0.03 | inactive: -0.022 | inactive: 0.008 | inactive: 0.031 | inactive: 0.01 | inactive: 0.011 | inactive: -0.172 | inactive: -0.012
12 | SUZ12 (UniProt Q15022) | inactive: 0.024 | inactive: -0.077 | inactive: -0.018 | inactive: 0.007 | inactive: 0.004 | inactive: 0.034 | inactive: -0.079 | inactive: -0.038 | inactive: -0.021 | inactive: 0.02 | inactive: -0.043 | inactive: 0.003 | inactive: -0.036 | inactive: 0.007 | inactive: -0.023 | inactive: -0.09 | active: 0.289 | inactive: 0.048 | inactive: 0.013 | inactive: -0.01
13 | STUB1 (UniProt Q9UNE7) | inactive: 0.05 | inactive: 0.024 | inactive: -0.034 | inactive: -0.022 | inactive: 0.009 | inactive: 0.003 | inactive: -0.033 | inactive: 0.013 | inactive: 0.006 | inactive: -0.018 | inactive: 0.015 | inactive: 0.005 | inactive: 0 | inactive: -0.018 | inactive: 0.023 | inactive: 0.032 | inactive: -0.012 | inactive: -0.001 | inactive: 0.011 | inactive: -0.019
14 | SYNCRIP isoform 3 (UniProt O60506) | inactive: -0.027 | inactive: 0.155 | inactive: -0.143 | inactive: 0.034 | inactive: -0.018 | inactive: -0.02 | inactive: -0.03 | inactive: -0.018 | inactive: 0.01 | inactive: -0.117 | inactive: -0.015 | inactive: 0.008 | inactive: -0.039 | inactive: 0.195 | inactive: 0.002 |  | inactive: 0.058 | inactive: 0.119 | inactive: -0.16 | inactive: 0.004
15 | TAB3 (UniProt Q8N5C8) | inactive: 0.009 |  | inactive: 0.046 |  | inactive: -0.035 | inactive: -0.014 |  | inactive: -0.042 | inactive: -0.022 | inactive: 0.116 | inactive: -0.154 | inactive: 0.032 | inactive: -0.205 | inactive: -0.008 | inactive: 0.103 | inactive: -0.026 | inactive: -0.014 | inactive: 0.094 | inactive: 0.175 | inactive: -0.066
16 | TAF6 isoform 3 (UniProt P49848) | inactive: -0.032 | inactive: -0.052 | inactive: 0.046 | inactive: -0.031 | inactive: -0.084 | inactive: 0.025 | inactive: -0.041 | inactive: -0.078 | inactive: 0.012 | inactive: -0.013 | inactive: -0.173 | inactive: 0.032 | inactive: -0.077 | inactive: 0.004 | inactive: -0.029 | inactive: 0.013 | inactive: -0.063 | inactive: 0.023 | inactive: 0.038 | inactive: 0.002
17 | STK25 (UniProt O00506) | inactive: 0.037 | inactive: -0.04 | inactive: -0.038 | inactive: 0.021 | inactive: 0.012 | inactive: 0.031 | active: 0.317 | inactive: 0.052 | inactive: -0.022 | inactive: -0.001 | inactive: -0.021 | inactive: -0.071 | inactive: 0.007 | inactive: -0.006 | inactive: -0.02 | inactive: -0.038 | inactive: -0.042 | inactive: 0.035 | inactive: 0.165 | inactive: -0.025

A different layout for part of the listing above:
Row,Target,log2 fold change (erlotinib),log2 fold change [1],log2 fold change [2],log2 fold change [3],log2 fold change [4],log2 fold change [5],log2 fold change [6],log2 fold change [7],log2 fold change [8],log2 fold change (IRAK-1-4 Inhibitor I),log2 fold change (ibrutinib),log2 fold change (ralimetinib),log2 fold change [9],log2 fold change [10],log2 fold change [11],log2 fold change [12],log2 fold change [13],log2 fold change [14],log2 fold change [15],log2 fold change [16]
4,TADA2B (UniProt Q86TJ2),inactive: 0.08,inactive: -0.05,inactive: 0.048,inactive: -0.155,,,inactive: 0.151,,,,,,,inactive: 0.101,inactive: 0.032,inactive: 0.007,inactive: -0.016,,,
5,SUPV3L1 (UniProt Q8IYB8),inactive: -0.007,inactive: 0.036,inactive: 0.002,inactive: -0.009,inactive: 0.01,inactive: -0.028,inactive: -0.025,inactive: -0.006,inactive: 0.028,inactive: -0.014,inactive: 0.014,inactive: 0.008,inactive: -0.003,inactive: -0.001,inactive: -0.004,inactive: 0.013,inactive: 0.021,inactive: -0.025,inactive: -0.02,inactive: -0.002
7,SUN2 isoform 2 (UniProt Q9UH99),inactive: -0.08,inactive: 0.038,inactive: -0.238,inactive: 0.067,inactive: -0.002,inactive: -0.026,inactive: -0.192,inactive: -0.144,inactive: 0.041,inactive: -0.049,inactive: -0.113,inactive: 0.055,inactive: 0.073,inactive: 0.063,,inactive: -0.042,inactive: -0.001,inactive: -0.072,inactive: 0.086,inactive: 0.062
8,STN1 (UniProt Q9H668),inactive: -0.126,inactive: 0.049,inactive: 0.142,inactive: 0.075,inactive: -0.098,inactive: 0.019,inactive: -0.061,inactive: -0.045,inactive: 0.043,inactive: 0.034,inactive: 0.133,inactive: 0.151,inactive: -0.071,inactive: -0.056,inactive: 0.106,,inactive: -0.016,inactive: 0.051,inactive: -0.187,inactive: 0.035
11,STK11 (UniProt Q15831),inactive: -0.005,inactive: -0.033,inactive: 0.026,inactive: 0.024,inactive: -0.005,inactive: -0.011,inactive: 0.042,inactive: 0.046,inactive: 0.013,inactive: -0.013,inactive: 0.035,inactive: -0.025,inactive: 0.03,inactive: -0.022,inactive: 0.008,inactive: 0.031,inactive: 0.01,inactive: 0.011,inactive: -0.172,inactive: -0.012
